# Some compounds share one wording; it may come from a single statement.
# What was measured:
# [1] = Melamine formaldehyde PMC Headspace Response Ratio
# [2] = Melamine formaldehyde PMC leakage; conditions: for Melamine formaldehyde PMC leakage (Comment Code): code letter J of the Comment Code column
# [3] = code letter within the Comment Code cell
Structure (SMILES),Comment Code: Melamine formaldehyde PMC Headspace Response Ratio [1],Comment Code: Melamine formaldehyde PMC leakage [2],further results
CC=CCCC1CCCC(=O)O1 (racemic) [Material 187],–,–,"Melamine formaldehyde PMC Headspace Response Ratio (Comment Code I) [1, 3]: I (Melamine formaldehyde PMC Headspace Response Ratio greater than or equal to 10)"
CC(C)=CCCC(C)=CCC1CCCC1=O (racemic) [Material 307],–,–,"Melamine formaldehyde PMC leakage (Comment Code J) [2, 3]: J (Melamine formaldehyde PMC leakage less than or equal to 5%)"
C=CC(C)CCC=C(C)CCC=O (racemic) [Material 358],–,–,"Melamine formaldehyde PMC leakage (Comment Code J) [2, 3]: J (Melamine formaldehyde PMC leakage less than or equal to 5%)"
C=CCCCCCCCC=CCC#N [Material 137],–,–,"Melamine formaldehyde PMC leakage (Comment Code J) [2, 3]: J (Melamine formaldehyde PMC leakage less than or equal to 5%)"
CC/C(C)=C/CC/C(C)=C\C#N [Material 158],–,–,"Melamine formaldehyde PMC leakage (Comment Code J) [2, 3]: J (Melamine formaldehyde PMC leakage less than or equal to 5%)"
CC(C)C=CCO [Material 194],I (Melamine formaldehyde PMC Headspace Response Ratio greater than or equal to 10),–,–
CC1(C)[C@@H]2CC[C@@]1(C)[C@H](O)C2 [Material 232],–,J (Melamine formaldehyde PMC leakage less than or equal to 5%),–
CCCCCCCC1CCC(=O)O1 (centres unmarked) [Material 316],–,–,"Melamine formaldehyde PMC leakage (Comment Code J) [2, 3]: J (Melamine formaldehyde PMC leakage less than or equal to 5%)"
CC1=CCCC2(C)OC2CCC(C)=CCC1 (centres unmarked) [Material 568],–,–,Melamine formaldehyde PMC leakage (Comment Code) [2]: J (Melamine formaldehyde PMC leakage less than or equal to 5%)
CCCCCC(=O)O [Material 583],I (Melamine formaldehyde PMC Headspace Response Ratio greater than or equal to 10),–,–
CC1(C)C2CCC1(C)C(O)C2 (centres unmarked) [Material 605],–,J (Melamine formaldehyde PMC leakage less than or equal to 5%),–
CCc1ccc(OC)c(O)c1 [Material 797],I (Melamine formaldehyde PMC Headspace Response Ratio greater than or equal to 10),–,–
CC(=O)OC(C)CCC=C(C)CCC=C(C)C (centres unmarked) [Material 881],–,–,Melamine formaldehyde PMC leakage (Comment Code) [2]: J (Melamine formaldehyde PMC leakage less than or equal to 5%)
CC1=CC[C@@H]2C[C@H]1C2(C)C [Material 901],I (Melamine formaldehyde PMC Headspace Response Ratio greater than or equal to 10),J (Melamine formaldehyde PMC leakage less than or equal to 5%),–
CC1=CC[C@H]2C[C@@H]1C2(C)C [Material 903],I (Melamine formaldehyde PMC Headspace Response Ratio greater than or equal to 10),J (Melamine formaldehyde PMC leakage less than or equal to 5%),–
CC(C)(C)C(=O)OC1CC2CC1C1CC=CC21 (centres unmarked) [Material 978],–,J (Melamine formaldehyde PMC leakage less than or equal to 5%),Melamine formaldehyde PMC leakage (Comment Code) [2]: J (Melamine formaldehyde PMC leakage less than or equal to 5%)
CC1CC2C3CCC(C3)C2CC1=O (centres unmarked) [Material 980],–,–,Melamine formaldehyde PMC leakage (Comment Code) [2]: J (Melamine formaldehyde PMC leakage less than or equal to 5%)
CC1=CCC2CC1C2(C)C (centres unmarked) [Material 1001],I (Melamine formaldehyde PMC Headspace Response Ratio greater than or equal to 10),J (Melamine formaldehyde PMC leakage less than or equal to 5%),–
C=C(C)[C@@H]1CC[C@@H](C)C(=O)C1 [Material 1081],I (Melamine formaldehyde PMC Headspace Response Ratio greater than or equal to 10),J (Melamine formaldehyde PMC leakage less than or equal to 5%),–
COC(=O)c1c(C)cc(O)c(C)c1O [Material 1117],–,–,Melamine formaldehyde PMC Headspace Response Ratio (Comment Code I) ([1]; Comment Code letter I): I (Melamine formaldehyde PMC Headspace Response Ratio greater than or equal to 10); Melamine formaldehyde PMC leakage (Comment Code J) ([2]; Comment Code letter J): J (Melamine formaldehyde PMC leakage less than or equal to 5%)
